PMC8160793 (Biomolecules, 2021)
Some peptides are written in HELM: one residue between dots, names in brackets for other building blocks, links after the first $.

Experiment: peptide synthesis
Conditions: whole synthesis, RP-HPLC

Substance | final HPLC purity [%]
PEPTIDE1{L.K.[Pen].L.K.K.L.L.[am]}$$$$V2.0 | 100.000
PEPTIDE1{F.L.K.L.L.[Pen].K.L.L.[am]}$$$$V2.0 | 100.000
PEPTIDE1{L.K.L.L.K.K.L.L.[am]}$$$$V2.0 | 96.070
PEPTIDE1{F.L.K.L.L.K.K.L.[Pen].[am]}$$$$V2.0 | 100.000
PEPTIDE1{F.L.K.L.L.K.K.[Pen].L.[am]}$$$$V2.0 | 100.000
PEPTIDE1{F.L.K.L.[Pen].K.K.L.L.[am]}$$$$V2.0 | 100.000
PEPTIDE1{[Pen].L.K.A.K.K.L.L.[am]}$$$$V2.0 | 96.250
PEPTIDE1{[Pen].L.K.L.L.K.K.L.L.[am]}$$$$V2.0 | 98.900
PEPTIDE1{F.[Pen].K.L.L.K.K.L.L.[am]}$$$$V2.0 | 98.450
